Test results published in the supplement of paper PMC10849652.
The list shows a part of the results.

By UniProt entry, the sequences of proteins in these tests, tags left out. Where a name states a change or a piece, a line headed by the entry shows the natural chain unless it says otherwise.
UniProt P55060: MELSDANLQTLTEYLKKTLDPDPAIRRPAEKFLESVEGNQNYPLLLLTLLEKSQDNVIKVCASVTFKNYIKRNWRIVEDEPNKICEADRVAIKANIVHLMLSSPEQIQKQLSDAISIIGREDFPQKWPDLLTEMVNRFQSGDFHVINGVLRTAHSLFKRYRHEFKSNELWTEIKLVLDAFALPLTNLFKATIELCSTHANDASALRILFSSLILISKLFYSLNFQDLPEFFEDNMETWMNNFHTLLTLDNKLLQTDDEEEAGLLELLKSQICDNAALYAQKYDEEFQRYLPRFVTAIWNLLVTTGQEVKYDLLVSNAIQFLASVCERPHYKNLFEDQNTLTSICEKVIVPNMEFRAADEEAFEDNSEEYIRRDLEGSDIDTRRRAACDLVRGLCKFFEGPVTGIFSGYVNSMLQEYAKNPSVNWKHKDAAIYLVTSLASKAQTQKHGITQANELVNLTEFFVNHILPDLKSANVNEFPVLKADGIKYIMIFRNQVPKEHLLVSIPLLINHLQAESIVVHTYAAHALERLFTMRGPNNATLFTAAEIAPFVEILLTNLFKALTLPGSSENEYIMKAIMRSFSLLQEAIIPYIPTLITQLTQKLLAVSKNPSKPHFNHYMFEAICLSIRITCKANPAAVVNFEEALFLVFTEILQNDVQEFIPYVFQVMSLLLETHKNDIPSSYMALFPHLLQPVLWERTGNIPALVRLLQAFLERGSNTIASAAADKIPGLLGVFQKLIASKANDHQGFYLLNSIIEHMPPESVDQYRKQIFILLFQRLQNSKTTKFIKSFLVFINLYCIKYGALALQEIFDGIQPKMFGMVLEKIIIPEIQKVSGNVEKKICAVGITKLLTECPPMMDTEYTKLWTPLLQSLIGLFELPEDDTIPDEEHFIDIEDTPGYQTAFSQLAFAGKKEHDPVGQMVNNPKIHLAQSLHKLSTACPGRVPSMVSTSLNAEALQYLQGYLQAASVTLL
UniProt Q9NTM9: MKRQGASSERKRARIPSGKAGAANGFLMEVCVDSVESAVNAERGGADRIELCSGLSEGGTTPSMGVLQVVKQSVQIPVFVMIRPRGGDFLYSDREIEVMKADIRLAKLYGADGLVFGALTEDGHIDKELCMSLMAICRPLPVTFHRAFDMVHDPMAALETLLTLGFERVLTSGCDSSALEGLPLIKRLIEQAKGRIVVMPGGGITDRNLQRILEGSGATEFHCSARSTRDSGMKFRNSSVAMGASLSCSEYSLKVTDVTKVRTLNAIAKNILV
UniProt P10619: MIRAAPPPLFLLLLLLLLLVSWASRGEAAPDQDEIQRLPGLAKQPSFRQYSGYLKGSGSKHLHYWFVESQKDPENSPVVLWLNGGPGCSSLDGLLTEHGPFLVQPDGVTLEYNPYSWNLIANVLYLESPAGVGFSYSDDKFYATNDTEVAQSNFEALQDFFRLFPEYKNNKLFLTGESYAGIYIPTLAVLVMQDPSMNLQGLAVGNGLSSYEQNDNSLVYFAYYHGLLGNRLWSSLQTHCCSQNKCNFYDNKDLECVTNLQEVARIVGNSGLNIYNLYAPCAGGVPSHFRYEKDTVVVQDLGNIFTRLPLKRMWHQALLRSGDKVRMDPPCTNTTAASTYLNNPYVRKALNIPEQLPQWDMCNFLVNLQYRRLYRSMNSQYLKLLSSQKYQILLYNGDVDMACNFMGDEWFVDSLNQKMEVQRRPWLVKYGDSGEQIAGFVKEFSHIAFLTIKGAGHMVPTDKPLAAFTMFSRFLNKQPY
UniProt O60888: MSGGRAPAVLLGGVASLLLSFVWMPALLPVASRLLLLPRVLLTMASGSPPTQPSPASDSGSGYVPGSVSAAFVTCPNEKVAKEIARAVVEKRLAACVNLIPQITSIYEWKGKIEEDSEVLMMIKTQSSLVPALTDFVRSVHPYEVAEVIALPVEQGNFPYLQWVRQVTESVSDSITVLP
UniProt P19784, whole entry, looked up: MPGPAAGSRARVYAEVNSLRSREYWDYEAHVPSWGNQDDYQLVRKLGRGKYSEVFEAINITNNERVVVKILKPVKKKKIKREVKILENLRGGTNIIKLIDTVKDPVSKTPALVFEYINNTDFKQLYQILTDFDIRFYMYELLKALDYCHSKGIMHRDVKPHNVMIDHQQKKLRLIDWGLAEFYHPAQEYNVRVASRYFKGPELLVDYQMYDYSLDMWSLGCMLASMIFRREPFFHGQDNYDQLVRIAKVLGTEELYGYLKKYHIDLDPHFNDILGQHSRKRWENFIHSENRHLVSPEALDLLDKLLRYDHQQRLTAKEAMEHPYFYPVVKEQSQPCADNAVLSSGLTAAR
UniProt Q13616, whole entry, looked up: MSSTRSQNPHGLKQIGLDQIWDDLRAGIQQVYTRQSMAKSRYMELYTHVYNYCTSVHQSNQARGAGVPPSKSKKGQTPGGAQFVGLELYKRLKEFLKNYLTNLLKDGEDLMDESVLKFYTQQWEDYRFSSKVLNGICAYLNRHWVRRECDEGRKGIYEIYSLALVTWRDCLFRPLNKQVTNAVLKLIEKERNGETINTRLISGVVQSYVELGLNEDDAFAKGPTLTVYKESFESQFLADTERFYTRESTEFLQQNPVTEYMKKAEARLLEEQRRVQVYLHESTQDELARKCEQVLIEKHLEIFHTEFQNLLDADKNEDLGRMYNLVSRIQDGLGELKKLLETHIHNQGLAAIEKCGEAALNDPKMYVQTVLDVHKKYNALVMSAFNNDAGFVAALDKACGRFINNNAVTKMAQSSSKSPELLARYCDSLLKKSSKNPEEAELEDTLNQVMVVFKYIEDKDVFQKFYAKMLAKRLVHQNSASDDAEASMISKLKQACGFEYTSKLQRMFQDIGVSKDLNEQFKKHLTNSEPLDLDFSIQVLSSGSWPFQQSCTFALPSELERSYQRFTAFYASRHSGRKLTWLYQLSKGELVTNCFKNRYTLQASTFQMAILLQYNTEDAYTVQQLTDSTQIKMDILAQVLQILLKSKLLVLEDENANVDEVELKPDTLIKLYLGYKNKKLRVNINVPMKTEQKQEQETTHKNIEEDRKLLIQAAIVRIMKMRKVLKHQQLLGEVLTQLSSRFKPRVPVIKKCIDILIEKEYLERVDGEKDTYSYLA
UniProt P35221: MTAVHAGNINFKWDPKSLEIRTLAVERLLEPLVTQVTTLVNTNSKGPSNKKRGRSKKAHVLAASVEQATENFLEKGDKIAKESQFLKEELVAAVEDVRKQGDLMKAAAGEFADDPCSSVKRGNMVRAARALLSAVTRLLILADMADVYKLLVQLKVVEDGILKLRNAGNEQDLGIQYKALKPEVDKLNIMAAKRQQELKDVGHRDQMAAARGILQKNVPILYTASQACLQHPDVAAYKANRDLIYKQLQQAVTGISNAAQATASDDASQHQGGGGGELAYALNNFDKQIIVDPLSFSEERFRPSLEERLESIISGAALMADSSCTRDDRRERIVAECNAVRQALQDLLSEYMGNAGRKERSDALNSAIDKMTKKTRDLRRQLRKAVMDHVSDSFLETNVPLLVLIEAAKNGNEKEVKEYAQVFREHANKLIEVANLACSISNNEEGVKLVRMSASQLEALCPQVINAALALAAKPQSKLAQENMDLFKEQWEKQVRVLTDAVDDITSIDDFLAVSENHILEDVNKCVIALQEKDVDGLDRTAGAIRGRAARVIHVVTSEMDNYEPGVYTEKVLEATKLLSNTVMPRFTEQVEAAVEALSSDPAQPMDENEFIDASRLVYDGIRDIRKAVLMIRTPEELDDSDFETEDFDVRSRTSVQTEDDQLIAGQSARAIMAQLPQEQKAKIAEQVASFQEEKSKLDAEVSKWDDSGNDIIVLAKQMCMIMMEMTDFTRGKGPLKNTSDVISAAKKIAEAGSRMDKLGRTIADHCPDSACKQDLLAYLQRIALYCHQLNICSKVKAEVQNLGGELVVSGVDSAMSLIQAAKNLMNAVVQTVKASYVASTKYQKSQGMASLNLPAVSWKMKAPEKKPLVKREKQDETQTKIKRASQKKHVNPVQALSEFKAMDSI

What was measured:
Experiment in all cases: log2 fold change, soluble protein after heating vs DMSO (PISA); higher = thermal stabilisation; K562 lysate, 10 uM; active = over 0.2 and 3.5 SD of the protein, either way, in both replicates (recomputed)
erlotinib = compound: C#Cc1cccc(Nc2ncnc3cc(OCCOC)c(OCCOC)cc23)c1 [erlotinib]
In short: (§1)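 Values give the log-two fold change in thermal stability against solvent controls, from duplicates. Crude K562 extract at 1 mg/mL protein, made by dounce homogenisation in PBS pH 7.4 with 1 mM MgCl2, was treated with 10 μM compound for 30 min. After 3 min heating across 48°C-58°C, aliquots were pooled, adjusted to 0.5% NP-40 at 4°C and centrifuged at 21,000xg for 90 min. The supernatant was measured by TMTpro 16plex LC-MS/MS with channel sums equalised.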

[1] = compound: C/C(=N\NC(=O)C1=CC(=CC=C1)S(=O)(=O)N2CCOCC2)/C3=C(C=CC(=C3)Cl)O
In short: as §1

[2] = compound: C1=CC(=CC=C1C2=NC3=C(N2)C=C(C=C3)C(=O)N)OC4=CC=C(C=C4)Cl
In short: as §1

[3] = compound: C1=CC2=C(C=CC(=C2)/C=C\3/C(=O)NC(=NCC4=CC=CS4)S3)N=C1
In short: as §1

[4] = compound: C1=CC2=NC=CN=C2C=C1/C=C/3\C(=O)NC(=O)S3
In short: as §1

[5] = compound: C1=CC=C(C=C1)C2=NC(=C(N2)C3=CC=NC=C3)C4=CC(=C(C=C4)Cl)O
In short: as §1

[6] = compound: C1=CC=C2C(=C1)C3=NNC4=CC=CC(=C43)C2=O
In short: as §1

[7] = compound: C1CCN(C1)C(=O)NC2=CC=CC(=C2)NC3=NC=C(C(=N3)NCCC4=CN=CN4)Br
In short: as §1

[8] = compound: C1CN(CCC1(CC2=CC=C(C=C2)Cl)N)C3=NC=NC4=C3C=CN4
In short: as §1

IRAK-1-4 Inhibitor I = compound: C1COCCN1CCN2C3=CC=CC=C3N=C2NC(=O)C4=CC(=CC=C4)[N+](=O)[O-] [IRAK-1-4 Inhibitor I]
In short: as §1

ibrutinib = compound: C=CC(=O)N1CCC[C@@H](n2nc(-c3ccc(Oc4ccccc4)cc3)c3c(N)ncnc32)C1 [ibrutinib]
In short: as §1

[9] = compound: CC(=O)c1cnc2ccc(-c3cc(Cl)c(O)c(Cl)c3)nc2c1N[C@H]1CC[C@H](CN(C)C)CC1
In short: as §1

ralimetinib = compound: CC(C)(C)Cn1c(N)nc2ccc(-c3[nH]c(C(C)(C)C)nc3-c3ccc(F)cc3)nc21 [ralimetinib]
In short: as §1

[10] = compound: CC(C)(O)CC(=O)NCCn1ccc2ncnc(Nc3ccc(Oc4cccc(C(F)(F)F)c4)c(Cl)c3)c21
In short: as §1

[11] = compound: CC(C)C1=C2N=C(C=C(N2N=C1)NCC3=CC=CC=C3)NCCCCCCN
In short: as §1

[12] = compound: CC1=C(C(CC(=O)N1)C2=CC=C(C=C2)C(F)(F)F)C(=O)NC3=C(C=C4C(=C3)C=NN4)F
In short: as §1

[13] = compound: CC1=C(C2=C(C=C1)C(=O)C3=CC=CC=C3N2CCCN)C
In short: as §1

[14] = compound: CC1=C(C=C(C=C1)NC(=O)C2=CC(=CC=C2)C(C)(C)C#N)NC3=CC4=C(C=C3)N=CN(C4=O)C
In short: as §1

[15] = compound: CC1=C(C=C(C=C1)NC(=O)C2=CC(=CC=C2)N(C)C)NC(=O)C3=CC=C(C=C3)O
In short: as §1

[16] = compound: CC1=CC=C(C=C1)SC2=C3C=C(SC3=CN=C2)C(=O)N
In short: as §1

| Target | log2 fold change (erlotinib) | log2 fold change [1] | log2 fold change [2] | log2 fold change [3] | log2 fold change [4] | log2 fold change [5] | log2 fold change [6] | log2 fold change [7] | log2 fold change [8] | log2 fold change (IRAK-1-4 Inhibitor I) | log2 fold change (ibrutinib) | log2 fold change [9] | log2 fold change (ralimetinib) | log2 fold change [10] | log2 fold change [11] | log2 fold change [12] | log2 fold change [13] | log2 fold change [14] | log2 fold change [15] | log2 fold change [16] |
| --- | --- | --- | --- | --- | --- | --- | --- | --- | --- | --- | --- | --- | --- | --- | --- | --- | --- | --- | --- | --- |
| CSE1L (UniProt P55060) | inactive: 0.034 | inactive: 0.034 | inactive: -0.006 | inactive: 0.004 | inactive: 0.023 | inactive: -0.019 | inactive: -0.016 | inactive: -0.018 | inactive: 0.012 | inactive: 0.011 | inactive: -0.019 | inactive: 0.007 | inactive: 0.003 | inactive: -0.057 | inactive: -0.025 | inactive: -0.022 | inactive: 0.002 | inactive: -0.005 | inactive: 0.015 | inactive: 0.019 |
| CUTC (UniProt Q9NTM9) | inactive: 0.019 | inactive: -0.026 | inactive: -0.026 | inactive: 0.017 | inactive: -0.006 | inactive: -0.034 | inactive: 0.003 | inactive: 0.005 | inactive: -0.023 | inactive: 0.017 | inactive: 0.047 | inactive: 0.004 | inactive: -0.018 | inactive: 0.006 | inactive: -0.022 | inactive: -0.064 | inactive: -0.044 | inactive: 0.004 | inactive: 0.002 | inactive: -0.021 |
| CTSA (UniProt P10619) | inactive: 0 | inactive: 0.011 | inactive: 0.021 | inactive: 0.022 | inactive: 0.039 | inactive: -0.01 | inactive: -0.033 | inactive: -0.02 | inactive: 0.035 | inactive: -0.009 | inactive: -0.066 | inactive: -0.008 | inactive: 0.01 | inactive: 0.017 | inactive: 0.027 | inactive: 0.018 | inactive: 0.048 | inactive: -0.003 | inactive: 0.034 | inactive: 0 |
| CUTA isoform 2 (UniProt O60888) | inactive: 0.018 | inactive: 0.035 | inactive: -0.02 | inactive: -0.005 | inactive: -0.002 | inactive: -0.014 | inactive: -0.075 | inactive: 0.02 | inactive: 0.056 | inactive: 0.037 | inactive: 0.036 | inactive: -0.013 | inactive: 0.01 | inactive: -0.02 | inactive: 0.013 | inactive: -0.034 | inactive: 0.036 | inactive: 0.104 | inactive: -0.016 | inactive: 0.101 |
| CSNK2A2 (UniProt P19784) | inactive: 0 | inactive: -0.209 | inactive: -0.015 | inactive: 0.383 | active: 0.699 | inactive: 0.032 | inactive: 0.375 | inactive: 0.277 | inactive: 0.024 | inactive: 0.022 | inactive: -0.015 | active: 0.666 | inactive: 0.012 | inactive: -0.014 | inactive: -0.01 | inactive: -0.046 | inactive: 0.185 | inactive: -0.017 | inactive: 0.003 | inactive: 0 |
| CTSB (UniProt P07858) | inactive: -0.001 | inactive: -0.036 | inactive: 0.015 | inactive: -0.007 | inactive: -0.013 | inactive: 0.004 | inactive: 0.015 | inactive: -0.002 | inactive: 0.025 | inactive: 0.026 | inactive: 0.01 | inactive: 0.015 | inactive: 0.008 | inactive: -0.014 | inactive: 0.013 | inactive: -0.016 | inactive: 0 | inactive: -0.004 | inactive: -0.013 | inactive: 0.05 |
| CUL1 (UniProt Q13616) | inactive: -0.011 | inactive: 0.006 | inactive: 0.026 | inactive: 0.01 | inactive: 0.009 | inactive: -0.011 | inactive: 0.017 | inactive: 0 | inactive: -0.006 | inactive: -0.013 | inactive: 0.02 | inactive: 0.005 | inactive: -0.004 | inactive: -0.016 | inactive: -0.018 | inactive: -0.014 | inactive: 0.016 | inactive: 0.02 | inactive: -0.001 | inactive: -0.01 |
| CTNNA1 (UniProt P35221) | inactive: -0.005 | inactive: 0.004 | inactive: 0.006 | inactive: -0.021 | inactive: -0.025 | inactive: 0.023 | inactive: 0.007 | inactive: 0 | inactive: -0.004 | inactive: 0.017 | inactive: -0.027 | inactive: -0.018 | inactive: -0.03 | inactive: -0.059 | inactive: 0.026 | inactive: 0.026 | inactive: -0.014 | inactive: 0.023 | inactive: 0 | inactive: -0.026 |
